Data: paper PMC7164261
These are yes or no findings as the source states them, for the method shown. In cells and extracts the contact can be indirect. For some assays here: Binding calls can cover weak binding; strength is not graded here. Where a sequence is shown, tags or fusion partners need not be part of it.

By UniProt entry, the sequences of proteins in these tests, tags left out. Where a name states a change or a piece, a line headed by the entry shows the natural chain unless it says otherwise.
UniProt Q9D6K5: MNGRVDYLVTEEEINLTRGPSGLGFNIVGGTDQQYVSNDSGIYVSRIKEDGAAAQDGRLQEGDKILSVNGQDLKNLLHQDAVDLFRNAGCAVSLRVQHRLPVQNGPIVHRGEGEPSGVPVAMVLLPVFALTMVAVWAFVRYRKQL

Legend:
[1] = target: T1, GST-TMIGD1/Δ5 (cytoplasmic tail of human TMIGD1 lacking the PDZ domain binding motif, AA 242-257) (human) (UniProt Q6UXZ0); assay: pull-down; 3 μg GST fusion protein on glutathione-Sepharose 4B, incubated with lysates of transfected HEK293T cells for 2 h at 4 °C; lysis buffer 50 mM TrisHCl pH 7.4, 1% NP-40, 150 mM NaCl; blot with anti-SYNJ2BP antibodies; only the target purified
T1 sequence: RRKKIMKLCMKDKDPH

[2] = target: T2, GST-TMIGD1 (cytoplasmic tail of human TMIGD1, AA 242-262) (human) (UniProt Q6UXZ0); assay: as above
T2 sequence: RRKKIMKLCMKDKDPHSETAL

In the case of “SYNJ2BP from SYNJ2BP-transfected HEK293T cells (prey of the GST pull-down) (from UniProt Q9D6K5)”, the binding [1] is reported as “no binding” and the binding [2] is reported as “binds”.
